The supplement of paper PMC6411743
± gives the standard deviation of the averaged measurements. The list shows a part of the results, in another mix than the full data.

The chains behind the UniProt entries cited, without tags or fusion partners. Where a name states a change or a piece, a line headed by the entry shows the natural chain unless it says otherwise.
UniProt Q70IA6: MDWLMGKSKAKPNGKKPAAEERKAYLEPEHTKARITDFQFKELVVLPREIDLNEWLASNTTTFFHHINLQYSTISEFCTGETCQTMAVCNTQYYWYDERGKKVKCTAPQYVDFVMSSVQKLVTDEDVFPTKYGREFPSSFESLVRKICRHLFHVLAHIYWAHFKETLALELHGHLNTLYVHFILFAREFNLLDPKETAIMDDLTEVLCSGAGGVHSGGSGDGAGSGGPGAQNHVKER
UniProt P46087: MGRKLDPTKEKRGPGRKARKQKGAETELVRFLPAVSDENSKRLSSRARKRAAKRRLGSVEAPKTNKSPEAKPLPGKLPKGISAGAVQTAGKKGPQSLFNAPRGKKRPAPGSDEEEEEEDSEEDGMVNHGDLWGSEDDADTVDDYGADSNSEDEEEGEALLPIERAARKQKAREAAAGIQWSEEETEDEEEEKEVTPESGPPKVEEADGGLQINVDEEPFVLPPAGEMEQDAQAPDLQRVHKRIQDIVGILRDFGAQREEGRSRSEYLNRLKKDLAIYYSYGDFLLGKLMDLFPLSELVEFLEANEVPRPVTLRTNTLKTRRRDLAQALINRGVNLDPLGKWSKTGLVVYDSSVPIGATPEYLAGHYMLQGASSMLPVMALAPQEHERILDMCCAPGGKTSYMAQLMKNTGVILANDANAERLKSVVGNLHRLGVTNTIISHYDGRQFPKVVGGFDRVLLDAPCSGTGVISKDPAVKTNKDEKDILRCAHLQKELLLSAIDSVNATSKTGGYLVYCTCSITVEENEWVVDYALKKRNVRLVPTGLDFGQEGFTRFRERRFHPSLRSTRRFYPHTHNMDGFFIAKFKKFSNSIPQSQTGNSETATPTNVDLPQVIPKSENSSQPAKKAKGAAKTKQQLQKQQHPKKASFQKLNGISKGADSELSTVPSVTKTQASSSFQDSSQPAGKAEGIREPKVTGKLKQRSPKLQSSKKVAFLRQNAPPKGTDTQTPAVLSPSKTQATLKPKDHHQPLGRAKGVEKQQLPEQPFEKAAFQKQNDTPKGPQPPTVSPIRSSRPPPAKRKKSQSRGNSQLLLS
UniProt Q8N5I9: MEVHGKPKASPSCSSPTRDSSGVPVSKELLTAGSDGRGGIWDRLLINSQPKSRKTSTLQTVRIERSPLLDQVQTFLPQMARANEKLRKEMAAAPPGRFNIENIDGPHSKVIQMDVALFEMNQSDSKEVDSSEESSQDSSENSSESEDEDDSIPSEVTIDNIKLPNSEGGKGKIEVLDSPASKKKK
UniProt Q9H299: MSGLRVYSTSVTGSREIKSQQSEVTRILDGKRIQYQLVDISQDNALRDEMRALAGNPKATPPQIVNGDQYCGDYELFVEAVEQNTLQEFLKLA
UniProt Q9NVX7: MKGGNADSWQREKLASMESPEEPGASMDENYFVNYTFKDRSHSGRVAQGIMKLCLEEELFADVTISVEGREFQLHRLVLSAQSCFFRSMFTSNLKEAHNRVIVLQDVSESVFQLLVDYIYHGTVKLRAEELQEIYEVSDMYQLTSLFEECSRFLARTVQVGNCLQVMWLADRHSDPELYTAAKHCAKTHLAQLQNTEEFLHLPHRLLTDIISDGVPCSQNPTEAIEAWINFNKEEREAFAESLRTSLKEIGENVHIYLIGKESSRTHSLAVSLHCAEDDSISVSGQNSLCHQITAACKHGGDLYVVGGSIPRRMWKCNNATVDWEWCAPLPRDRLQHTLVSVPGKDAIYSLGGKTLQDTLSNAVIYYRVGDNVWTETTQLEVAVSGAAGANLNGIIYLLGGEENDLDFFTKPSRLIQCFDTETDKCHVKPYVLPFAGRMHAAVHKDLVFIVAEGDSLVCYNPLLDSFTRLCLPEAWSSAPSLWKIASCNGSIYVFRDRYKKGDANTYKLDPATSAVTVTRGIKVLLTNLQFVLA
UniProt Q00610: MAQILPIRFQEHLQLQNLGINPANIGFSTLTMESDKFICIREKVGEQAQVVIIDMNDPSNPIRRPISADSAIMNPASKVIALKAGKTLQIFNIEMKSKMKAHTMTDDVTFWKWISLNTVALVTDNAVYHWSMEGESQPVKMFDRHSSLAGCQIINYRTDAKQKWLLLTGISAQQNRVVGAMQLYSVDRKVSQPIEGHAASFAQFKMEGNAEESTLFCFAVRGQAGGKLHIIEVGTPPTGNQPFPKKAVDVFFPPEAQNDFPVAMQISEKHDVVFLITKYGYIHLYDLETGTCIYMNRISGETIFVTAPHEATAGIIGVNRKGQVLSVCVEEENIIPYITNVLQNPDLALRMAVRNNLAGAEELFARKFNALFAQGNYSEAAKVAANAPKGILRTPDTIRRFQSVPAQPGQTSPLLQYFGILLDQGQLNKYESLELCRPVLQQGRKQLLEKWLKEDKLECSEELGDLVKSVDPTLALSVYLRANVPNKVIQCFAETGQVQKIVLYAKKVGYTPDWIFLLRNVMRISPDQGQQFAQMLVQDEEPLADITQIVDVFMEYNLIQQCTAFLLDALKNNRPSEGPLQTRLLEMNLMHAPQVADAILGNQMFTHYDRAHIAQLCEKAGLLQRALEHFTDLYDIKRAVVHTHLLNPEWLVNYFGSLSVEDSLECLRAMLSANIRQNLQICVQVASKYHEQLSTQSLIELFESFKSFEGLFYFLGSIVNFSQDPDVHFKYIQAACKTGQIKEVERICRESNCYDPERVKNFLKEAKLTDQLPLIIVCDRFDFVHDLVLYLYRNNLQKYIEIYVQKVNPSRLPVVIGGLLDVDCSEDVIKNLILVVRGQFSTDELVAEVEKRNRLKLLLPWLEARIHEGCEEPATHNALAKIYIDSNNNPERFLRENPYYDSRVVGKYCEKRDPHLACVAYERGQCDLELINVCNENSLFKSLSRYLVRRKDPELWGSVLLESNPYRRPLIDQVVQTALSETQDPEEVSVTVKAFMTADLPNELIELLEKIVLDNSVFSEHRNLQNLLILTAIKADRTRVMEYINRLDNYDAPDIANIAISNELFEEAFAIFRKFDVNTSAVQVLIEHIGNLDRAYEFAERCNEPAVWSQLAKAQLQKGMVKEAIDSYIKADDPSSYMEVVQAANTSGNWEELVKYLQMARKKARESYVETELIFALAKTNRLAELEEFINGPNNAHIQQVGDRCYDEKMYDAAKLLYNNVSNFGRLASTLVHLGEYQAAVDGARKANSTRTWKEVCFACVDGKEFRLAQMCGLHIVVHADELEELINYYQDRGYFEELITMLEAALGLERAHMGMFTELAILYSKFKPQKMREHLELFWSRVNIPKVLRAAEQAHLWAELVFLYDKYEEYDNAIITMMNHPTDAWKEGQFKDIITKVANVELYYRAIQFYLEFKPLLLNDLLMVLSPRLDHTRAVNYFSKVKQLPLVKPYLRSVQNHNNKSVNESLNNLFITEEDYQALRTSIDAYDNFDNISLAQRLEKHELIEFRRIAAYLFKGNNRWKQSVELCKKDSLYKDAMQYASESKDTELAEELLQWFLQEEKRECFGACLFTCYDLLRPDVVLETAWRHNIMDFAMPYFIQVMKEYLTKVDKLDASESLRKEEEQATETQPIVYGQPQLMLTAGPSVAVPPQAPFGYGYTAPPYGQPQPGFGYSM
UniProt Q9NV06: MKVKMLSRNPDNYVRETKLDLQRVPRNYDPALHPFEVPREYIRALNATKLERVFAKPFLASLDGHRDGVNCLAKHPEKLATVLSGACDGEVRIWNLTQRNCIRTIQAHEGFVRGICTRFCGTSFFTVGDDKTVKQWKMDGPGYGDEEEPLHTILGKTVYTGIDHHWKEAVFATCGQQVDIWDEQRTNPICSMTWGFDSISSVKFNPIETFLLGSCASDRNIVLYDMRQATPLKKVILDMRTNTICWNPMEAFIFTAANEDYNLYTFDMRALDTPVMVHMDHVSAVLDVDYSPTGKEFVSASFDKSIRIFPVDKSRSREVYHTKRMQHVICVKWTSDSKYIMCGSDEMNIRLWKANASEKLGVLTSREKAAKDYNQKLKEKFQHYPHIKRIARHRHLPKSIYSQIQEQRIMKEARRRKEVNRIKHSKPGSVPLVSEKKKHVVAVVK
UniProt P49720: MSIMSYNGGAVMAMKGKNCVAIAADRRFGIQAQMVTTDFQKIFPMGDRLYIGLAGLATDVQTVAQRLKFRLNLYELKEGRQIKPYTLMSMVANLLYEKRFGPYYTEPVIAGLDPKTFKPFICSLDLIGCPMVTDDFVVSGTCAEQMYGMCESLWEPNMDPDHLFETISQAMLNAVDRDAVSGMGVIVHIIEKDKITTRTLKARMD
UniProt P06493, whole entry, looked up: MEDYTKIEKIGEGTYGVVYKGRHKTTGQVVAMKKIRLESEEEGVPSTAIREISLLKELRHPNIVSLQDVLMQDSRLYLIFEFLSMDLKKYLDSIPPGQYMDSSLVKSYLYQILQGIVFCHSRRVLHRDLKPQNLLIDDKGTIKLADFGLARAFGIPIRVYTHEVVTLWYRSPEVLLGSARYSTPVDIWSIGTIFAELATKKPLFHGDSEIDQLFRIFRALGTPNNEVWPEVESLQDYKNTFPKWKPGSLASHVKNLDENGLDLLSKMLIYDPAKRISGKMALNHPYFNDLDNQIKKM
UniProt Q99417: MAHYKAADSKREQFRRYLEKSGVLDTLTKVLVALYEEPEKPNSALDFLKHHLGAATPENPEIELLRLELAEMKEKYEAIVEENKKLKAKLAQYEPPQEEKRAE
UniProt Q96GX5: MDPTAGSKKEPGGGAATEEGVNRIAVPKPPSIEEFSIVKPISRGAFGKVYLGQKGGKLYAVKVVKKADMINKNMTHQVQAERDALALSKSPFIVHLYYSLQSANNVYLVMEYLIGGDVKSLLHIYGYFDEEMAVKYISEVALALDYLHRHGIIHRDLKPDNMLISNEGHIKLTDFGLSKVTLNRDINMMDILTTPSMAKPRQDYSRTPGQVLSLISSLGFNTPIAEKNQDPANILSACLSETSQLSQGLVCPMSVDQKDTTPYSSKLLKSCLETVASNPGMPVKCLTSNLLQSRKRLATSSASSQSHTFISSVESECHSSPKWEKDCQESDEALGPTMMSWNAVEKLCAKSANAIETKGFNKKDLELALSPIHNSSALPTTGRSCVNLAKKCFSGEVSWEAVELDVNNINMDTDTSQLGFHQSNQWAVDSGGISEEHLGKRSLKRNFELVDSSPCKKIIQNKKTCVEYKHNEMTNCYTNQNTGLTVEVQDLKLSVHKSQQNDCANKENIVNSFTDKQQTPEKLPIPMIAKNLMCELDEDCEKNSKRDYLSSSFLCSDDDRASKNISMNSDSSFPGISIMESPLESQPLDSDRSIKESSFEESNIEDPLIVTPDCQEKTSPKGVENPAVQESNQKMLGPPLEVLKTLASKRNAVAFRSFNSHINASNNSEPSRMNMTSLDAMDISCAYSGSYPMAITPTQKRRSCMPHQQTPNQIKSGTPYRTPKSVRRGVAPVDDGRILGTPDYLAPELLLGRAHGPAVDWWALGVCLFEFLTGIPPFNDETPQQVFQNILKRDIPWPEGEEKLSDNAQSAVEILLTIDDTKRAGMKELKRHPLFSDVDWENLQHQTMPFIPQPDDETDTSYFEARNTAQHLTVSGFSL
UniProt P46379: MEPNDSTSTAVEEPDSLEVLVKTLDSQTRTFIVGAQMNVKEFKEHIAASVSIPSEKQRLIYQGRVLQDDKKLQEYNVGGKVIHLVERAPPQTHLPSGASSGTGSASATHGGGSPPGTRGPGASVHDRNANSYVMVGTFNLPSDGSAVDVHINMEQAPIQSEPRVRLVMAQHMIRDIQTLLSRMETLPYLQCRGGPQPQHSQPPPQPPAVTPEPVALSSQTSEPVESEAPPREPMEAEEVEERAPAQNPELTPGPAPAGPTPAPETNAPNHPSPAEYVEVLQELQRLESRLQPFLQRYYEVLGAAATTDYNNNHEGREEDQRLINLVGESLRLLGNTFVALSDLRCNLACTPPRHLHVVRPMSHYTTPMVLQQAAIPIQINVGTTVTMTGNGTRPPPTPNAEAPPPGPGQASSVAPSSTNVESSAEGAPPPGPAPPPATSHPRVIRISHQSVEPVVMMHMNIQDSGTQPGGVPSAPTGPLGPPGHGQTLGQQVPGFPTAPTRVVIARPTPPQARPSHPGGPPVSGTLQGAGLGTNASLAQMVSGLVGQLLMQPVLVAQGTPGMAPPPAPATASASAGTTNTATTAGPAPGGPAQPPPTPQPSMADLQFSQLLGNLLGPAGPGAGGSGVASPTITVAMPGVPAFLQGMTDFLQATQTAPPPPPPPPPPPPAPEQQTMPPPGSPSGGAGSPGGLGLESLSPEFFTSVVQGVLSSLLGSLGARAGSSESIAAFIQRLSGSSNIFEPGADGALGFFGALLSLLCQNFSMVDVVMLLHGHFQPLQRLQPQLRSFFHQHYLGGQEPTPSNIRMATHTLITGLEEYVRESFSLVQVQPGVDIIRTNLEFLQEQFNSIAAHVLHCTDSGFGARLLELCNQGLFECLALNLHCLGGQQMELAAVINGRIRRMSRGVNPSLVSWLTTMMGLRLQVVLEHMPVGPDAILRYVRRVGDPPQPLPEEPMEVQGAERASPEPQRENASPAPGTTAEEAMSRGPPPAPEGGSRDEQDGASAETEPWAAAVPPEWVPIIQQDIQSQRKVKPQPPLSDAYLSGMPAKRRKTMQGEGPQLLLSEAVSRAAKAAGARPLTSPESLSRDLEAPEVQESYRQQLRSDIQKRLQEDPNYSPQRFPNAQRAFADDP

Compound: Nc1ncnc2c1ncn2[C@@H]1O[C@H](COP(=O)(O)OP(=O)(O)NP(=O)(O)O)[C@@H](O)[C@H]1O [adenylyl imidodiphosphate]
Test: NP40-soluble protein abundance relative to vehicle (solubility fold change) (ratio); higher = more soluble protein in presence of AMP-PNP
Details: concentration: 4mM
Method in brief: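 Jurkat crude lysate (Dounce-homogenised) was treated with eight concentrations from 0.1 to 10 mM for 10 min at room temperature, then 3 min at 37 °C. It was solubilised with 0.8% NP40 and benzonase (60 min, 4 °C) and ultracentrifuged, and the supernatant was TMT-labelled for LC-MS/MS. Intensities were vsn-normalised, and the value is the fold change against the NP40-processed vehicle per replicate, from three independent experiments.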

Target	NP40-soluble protein abundance
A0A087WVS8|Q70IA6 and related entries (UniProt Q70IA6)	0.95 ± 0.063
A0A087WTX2|Q92504 (UniProt Q92504)	0.934 ± 0.059
A0A087WVA8|Q8IWB9 and related entries (UniProt Q8IWB9)	0.989 ± 0.053
A0A087WV73|P46087 and related entries (UniProt P46087)	1.17 ± 0.05
A0A087WT30|Q8N5I9 (UniProt Q8N5I9)	1.18 ± 0.02
A0A087WV23|Q5T123 and related entries (UniProt Q9H299)	0.945 ± 0.02
A0A075B6T4|Q9NVX7 and related entries (UniProt Q9NVX7)	0.962 ± 0.056
A0A075B716|H0YN88 and related entries (UniProt P08708)	0.987 ± 0.13
A0A087WUD1|Q6DD87 (UniProt Q6DD87)	0.977 ± 0.022
A0A087WUS0|E7ETK0 and related entries (UniProt P62847)	0.912 ± 0.12
A0A087WTU3|Q9Y6I9 (UniProt Q9Y6I9)	1.03 ± 0.021
A0A087WUW9|Q9NXU5 (UniProt Q9NXU5)	1.04 ± 0.05
A0A087WU02|F8VPA6 and related entries (UniProt Q96RQ1)	0.954 ± 0.059
A0A024R7E8|K7EMV4 and related entries (UniProt P60002)	1.1 ± 0.024
A0A087WVQ6|Q00610 and related entries (UniProt Q00610)	0.854 ± 0.012
A0A087WUZ9|Q16760 and related entries (UniProt Q16760)	1.07 ± 0.089
A0A087WU64|A6NMQ1 and related entries (UniProt P09884)	0.972 ± 0.011

Target	NP40-soluble protein abundance
A0A087WU53|Q9H0U3 (UniProt Q9H0U3)	0.949 ± 0.041
A0A024RAC6 (UniProt Q14241)	1.06 ± 0.029
A0A087WVF7|Q9NZM3 and related entries (UniProt Q9NZM3)	1.05 ± 0.04
A0A075B738|P16284 and related entries (UniProt P16284)	1.01 ± 0.033
A0A087WUP3|F8WBY6 and related entries (UniProt Q8N3Z3)	0.98776 ± 0.00061
A0A087WUX8|A0A087WYF7|Q6UXV4 (UniProt Q6UXV4)	1.06 ± 0.05
A0A087WU65|Q9NRW7 (UniProt Q9NRW7)	0.947 ± 0.033
A0A087WT20|Q9NV06 (UniProt Q9NV06)	1.04 ± 0.015
A0A087WUL2|P49720 (UniProt P49720)	0.937 ± 0.12
A0A087WTU9|A0A087WZY3|Q8TCU4 and related entries (UniProt Q8TCU4)	0.924 ± 0.08
A0A024QZP7|P06493 (UniProt P06493)	1.02 ± 0.024
A0A087WV86|B5LMG6 and related entries (UniProt Q6PGQ7+B5LMG6)	0.992 ± 0.0092
A0A087WUT6|O60841 (UniProt O60841)	1.02 ± 0.017
A0A087WV05|Q99417 (UniProt Q99417)	0.923 ± 0.012
A0A087WUU7|Q96GX5 and related entries (UniProt Q96GX5)	1.01 ± 0.044
A0A024RCR6|A0A0G2JK23|P46379 and related entries (UniProt P46379)	0.985 ± 0.035

Same assay, conditions: concentration: 6mM

Target	NP40-soluble protein abundance
A0A087WVS8|Q70IA6 and related entries (UniProt Q70IA6)	0.946 ± 0.015
A0A087WTX2|Q92504 (UniProt Q92504)	0.91 ± 0.012
A0A087WVA8|Q8IWB9 and related entries (UniProt Q8IWB9)	0.98 ± 0.036
A0A087WV73|P46087 and related entries (UniProt P46087)	1.28 ± 0.067
A0A087WT30|Q8N5I9 (UniProt Q8N5I9)	1.16 ± 0.036
A0A087WV23|Q5T123 and related entries (UniProt Q9H299)	0.998 ± 0.03
A0A075B6T4|Q9NVX7 and related entries (UniProt Q9NVX7)	0.956 ± 0.061
A0A075B716|H0YN88 and related entries (UniProt P08708)	0.905 ± 0.12
A0A087WUD1|Q6DD87 (UniProt Q6DD87)	0.985 ± 0.046
A0A087WUS0|E7ETK0 and related entries (UniProt P62847)	0.936 ± 0.083
A0A087WTU3|Q9Y6I9 (UniProt Q9Y6I9)	1 ± 0.012
A0A087WUW9|Q9NXU5 (UniProt Q9NXU5)	1 ± 0.04
A0A087WU02|F8VPA6 and related entries (UniProt Q96RQ1)	0.958 ± 0.053
A0A024R7E8|K7EMV4 and related entries (UniProt P60002)	1.14 ± 0.071
A0A087WVQ6|Q00610 and related entries (UniProt Q00610)	0.838 ± 0.032
A0A087WUZ9|Q16760 and related entries (UniProt Q16760)	1.07 ± 0.022
A0A087WU64|A6NMQ1 and related entries (UniProt P09884)	0.95 ± 0.011

Target	NP40-soluble protein abundance
A0A087WU53|Q9H0U3 (UniProt Q9H0U3)	1.02 ± 0.057
A0A024RAC6 (UniProt Q14241)	1.08 ± 0.044
A0A087WVF7|Q9NZM3 and related entries (UniProt Q9NZM3)	1.06 ± 0.031
A0A075B738|P16284 and related entries (UniProt P16284)	0.995 ± 0.011
A0A087WUP3|F8WBY6 and related entries (UniProt Q8N3Z3)	0.99 ± 0.016
A0A087WUX8|A0A087WYF7|Q6UXV4 (UniProt Q6UXV4)	1.06 ± 0.049
A0A087WU65|Q9NRW7 (UniProt Q9NRW7)	0.956 ± 0.027
A0A087WT20|Q9NV06 (UniProt Q9NV06)	0.997 ± 0.018
A0A087WUL2|P49720 (UniProt P49720)	1.03 ± 0.15
A0A087WTU9|A0A087WZY3|Q8TCU4 and related entries (UniProt Q8TCU4)	1 ± 0.11
A0A024QZP7|P06493 (UniProt P06493)	1.02 ± 0.023
A0A087WV86|B5LMG6 and related entries (UniProt Q6PGQ7+B5LMG6)	1.012 ± 0.0096
A0A087WUT6|O60841 (UniProt O60841)	1.01 ± 0.033
A0A087WV05|Q99417 (UniProt Q99417)	0.922 ± 0.041
A0A087WUU7|Q96GX5 and related entries (UniProt Q96GX5)	0.976 ± 0.023
A0A024RCR6|A0A0G2JK23|P46379 and related entries (UniProt P46379)	0.967 ± 0.039
